Data from publication PMC12431657, “Discovery and mechanistic insights of dibenzoylmethane as a broad spectrum inhibitor of coronavirus” (PLOS Pathogens, 2025).
Where two headings read alike, the source gives them in different places. Among all 3,300 compounds or so, about 60 (2%) showed an effect of 50% or more. The list shows a part of the results.

System: HCoV-OC43
Design: species or system RD; HTS, protection from HCoV-OC43 induced cell death, luminescent cell viability (CellCounting-Lite 2.0), inhibition rate
Conditions: 24 h post infection, 1 h compound pre-incubation, 10 µM, inhibitor

**Q.** `O[C@H]1[C@H](O)[C@@H](O)[C@H](O)[C@@H](O)[C@@H]1O` [Scyllo-Inositol] was tested. Which “OC43 Inhibition rate” value did it give?
**A.** The value was -3.6%.

**Q.** `O=C(O)CCC(=O)OC[C@@H](NC(=O)C(Cl)Cl)[C@H](O)c1ccc([N+](=O)[O-])cc1` [Chloramphenicol succinate (sodium)] was tested. Which “OC43 Inhibition rate” value did it give?
**A.** Its value is 0%.

**Q.** For `C[C@@H]1CCCC2=CC(=O)[C@@H]3[C@@H](C3(C)C)[C@]21C` [Aristolone], which “OC43 Inhibition rate” value is on record?
**A.** Its value is -0.3%.

**Q.** For `COc1c(O[C@@H]2O[C@H](CO)[C@@H](O)[C@H](O)[C@H]2O)cc2c(c1O)C(=O)c1c(cc(C)c(O)c1OC)C2=O` [Aurantio-obtusin β-D-glucoside], which “OC43 Inhibition rate” value is on record?
**A.** The value was -0.2%.

**Q.** `CC(C)=C[C@H]1C[C@](C)(O)[C@@H]2[C@H]3CC[C@@H]4[C@@]5(C)CC[C@H](O[C@@H]6OC[C@H](O)[C@H](O[C@@H]7O[C@H](CO)[C@@H](O)[C@H](O)[C@H]7O)[C@H]6O[C@@H]6O[C@@H](CO)[C@H](O)[C@H]6O)C(C)(C)[C@@H]5CC[C@@]4(C)[C@@]34CO[C@@]2(C4)O1` [Bacopaside X] was tested. Which “OC43 Inhibition rate” value did it give?
**A.** Its value is -2.4%.

**Q.** `CCn1cc(C(=O)O)c(=O)c2ccc(C)nc21` [Nalidixic acid] was tested. Which “OC43 Inhibition rate” value did it give?
**A.** The value was 0.1%.

**Q.** `O=C(O)/C=C/c1c[nH]c2ccccc12` [trans-3-Indoleacrylic acid] was tested. Which “OC43 Inhibition rate” value did it give?
**A.** The value was 1.8%.

**Q.** Which “OC43 Inhibition rate” value does the source give for `COc1ccc(-c2oc3c(CC=C(C)C)c(O[C@@H]4O[C@H](CO)[C@@H](O)[C@H](O)[C@H]4O)cc(O)c3c(=O)c2O[C@@H]2O[C@@H](C)[C@H](O)[C@@H](O)[C@H]2O)cc1` [Icariin] here?
**A.** Its value is 0.6%.

**Q.** How did the “OC43 Inhibition rate” value turn out when `C[C@H]1[C@@H](O)O[C@@H]2O[C@@]3(C)CC[C@H]4[C@H](C)CC[C@@H]1[C@@]24OO3` [Dihydroartemisinin] was run?
**A.** The value was 19.3%.

**Q.** With `C/C=C1\C[C@@H](C)[C@](O)(CO)C(=O)OCC2=CCN3CC[C@@H](OC1=O)[C@@H]23` [Usaramine] as the compound, how does the “OC43 Inhibition rate” value read?
**A.** The value was -5.7%.

**Q.** For `CC1CC[C@@]2(OC1)O[C@H]1C[C@H]3[C@@H]4CC=C5C[C@@H](O)C[C@@H](O)[C@]5(C)[C@H]4CC[C@]3(C)[C@H]1[C@@H]2C` (stereo partly drawn) [25(R,S)-Ruscogenin], which “OC43 Inhibition rate” value is on record?
**A.** The value was 25.3%.

**Q.** How did the “OC43 Inhibition rate” value turn out when `COc1ccc(-c2cc(=O)c3c(OC)cc(OC)c(OC)c3o2)cc1` [6-Demethoxytangeretin] was run?
**A.** Its value is 6.2%.

**Q.** With `Nc1nc(=O)c2[nH]c(=O)cnc2[nH]1` [Xanthopterin (hydrate)] as the compound, how does the “OC43 Inhibition rate” value read?
**A.** The value was -0.2%.

**Q.** How did the “OC43 Inhibition rate” value turn out when `OC[C@@H](O)[C@@H](O)[C@@H](O)[C@@H](O)CO` [Allitol] was run?
**A.** The value was -2.4%.

**Q.** How did the “OC43 Inhibition rate” value turn out when `O=c1c(O)c(-c2cc(O)c(O)c(O)c2)oc2cc(O)cc(O)c12` [Myricetin] was run?
**A.** The value was 0%.

**Q.** Which “OC43 Inhibition rate” value does the source give for `Oc1cc(O)c2ccc(-c3ccc(O)c(O)c3)[o+]c2c1` [Luteolinidin (chloride)] here?
**A.** The value was 0.1%.

**Q.** For `O=C(O)c1cc2ccccc2[nH]1` [Indole-2-carboxylic acid], which “OC43 Inhibition rate” value is on record?
**A.** The value was 0.8%.

**Q.** `NC1CCCNC1=O` (stereo not shown) [3-Amino-2-piperidinone] was tested. Which “OC43 Inhibition rate” value did it give?
**A.** Its value is -0.7%.

**Q.** Which “OC43 Inhibition rate” value does the source give for `O=c1c(O)cccc2cc(O)c(O)c(O)c12` [Purpurogallin] here?
**A.** Its value is 0.2%.

**Q.** Which “OC43 Inhibition rate” value does the source give for `CC(=O)N[C@@H](CC(=O)N[C@@H](CCC(=O)O)C(=O)O)C(=O)O` [Spaglumic Acid] here?
**A.** The value was -3%.

**Q.** How did the “OC43 Inhibition rate” value turn out when `COc1ccc(-c2cc(=O)c3c(O)cc(O)cc3o2)cc1` [Acacetin] was run?
**A.** Its value is 23.4%.

**Q.** `COC(=O)[C@@H]1[C@H]2C[C@H]3c4[nH]c5ccccc5c4CCN3C[C@@H]2CC[C@@H]1O` [Yohimbine] was tested. Which “OC43 Inhibition rate” value (OC43 Inhibition rate, 24 h) did it give?
**A.** Its value is 1.9%.

**Q.** How did the “OC43 Inhibition rate” value turn out when `O=CNCC(=O)O` [N-Formylglycine] was run?
**A.** The value was 0.4%.

**Q.** Which “OC43 Inhibition rate” value does the source give for `C[C@@H]1O[C@@H](O[C@H]2[C@H](OC(=O)[C@]34CCC(C)(C)C[C@H]3C3=CC[C@@H]5[C@@]6(C)C[C@H](O)[C@H](O[C@@H]7O[C@H](CO)[C@@H](O)[C@H](O)[C@H]7O)[C@](CO)(C(=O)O)[C@@H]6CC[C@@]5(C)[C@]3(C)C[C@H]4O)OC[C@H](O)[C@@H]2O)[C@H](O)[C@H](O)[C@H]1O[C@@H]1OC[C@@H](O)[C@H](O[C@@H]2OC[C@](O)(CO)[C@H]2O)[C@H]1O` [Platyconic acid A] here?
**A.** The value was -1.7%.

**Q.** How did the “OC43 Inhibition rate” value turn out when `O=C(O[C@@H]1Cc2c(O)cc(O)cc2O[C@H]1c1ccc(O)c(O)c1)c1cc(O)c(O)c(O)c1` [(-)-Catechin gallate] was run?
**A.** Its value is 0.2%.

**Q.** With `NCCS(=O)(=O)O` [Taurine] as the compound, how does the “OC43 Inhibition rate” value read?
**A.** Its value is 0.5%.

**Q.** How did the “OC43 Inhibition rate” value turn out when `COc1ccc(C(=O)O[C@H]2[C@H](O[C@@H]3[C@@H](OC(C)=O)[C@H](O[C@H]4C[C@H]5[C@@H]6CC=C7C[C@@H](O)CC[C@]7(C)[C@H]6CC[C@]5(C)[C@@]4(O)[C@H](C)C(=O)CCC(C)C)OC[C@@H]3O)OC[C@@H](O)[C@@H]2O)cc1` [OSW-1] was run?
**A.** The value was -4.2%.

**Q.** With `CC1=C2[C@@H](OC1=O)[C@H](O)[C@]13[C@H]4C[C@@H](C(C)(C)C)[C@]15[C@@H](OC(=O)[C@@H]5O)O[C@@]23C(=O)O4` [Ginkgolide K] as the compound, how does the “OC43 Inhibition rate” value read?
**A.** The value was 0.1%.

**Q.** For `COc1ccc(-c2coc3cc(O[C@@H]4O[C@H](CO)[C@@H](O)[C@H](O)[C@H]4O)c(OC)c(O)c3c2=O)cc1O` [Iristectorin A], which “OC43 Inhibition rate” value is on record?
**A.** Its value is 1.8%.

**Q.** For `COc1ccc(-c2cc(=O)c3c(O)cc(O[C@@H]4O[C@H](CO[C@@H]5O[C@@H](C)[C@H](O)[C@@H](O)[C@H]5O)[C@@H](O)[C@H](O)[C@H]4O)cc3o2)cc1` [Linarin], which “OC43 Inhibition rate” value is on record?
**A.** The value was 0%.

**Q.** How did the “OC43 Inhibition rate” value turn out when `O=C(O)Cn1ccnc1` [Imidazol-1-yl-acetic acid] was run?
**A.** Its value is -4.2%.

**Q.** How did the “OC43 Inhibition rate” value turn out when `CC(=O)c1cc2c(CO)cc(O)cc2oc1=O` [Armillarisin A] was run?
**A.** Its value is -0.4%.

**Q.** How did the “OC43 Inhibition rate” value turn out when `CCCCCCCCCCCCCCCCCCCCCCCCC(=O)O` [Pentacosanoic acid] was run?
**A.** The value was -3.4%.

**Q.** With `CCCCCCCCOC(=O)c1cc(O)c(O)c(O)c1` [Octyl gallate] as the compound, how does the “OC43 Inhibition rate” value read?
**A.** Its value is 6.8%.

**Q.** With `O=C1N[C@@H]2[C@@H](O)[C@@H](O)[C@H](O)[C@@H](CO)N2C1=O` [Kifunensine] as the compound, how does the “OC43 Inhibition rate” value read?
**A.** The value was -5.2%.

**Q.** Which “OC43 Inhibition rate” value (OC43 Inhibition rate, 24 h) does the source give for `O=C(/C=C/c1ccc(O)c(O)c1)O[C@@H](C(=O)O)[C@@H](OC(=O)/C=C/c1ccc(O)c(O)c1)C(=O)O` [L-Chicoric Acid] here?
**A.** The value was 1.3%.

**Q.** Which “OC43 Inhibition rate” value does the source give for `CC(=O)O[C@]12CCC(C(=O)O)=CC[C@]13CC[C@H]2[C@@](C)(/C=C/C=C(\C)C(=O)O)OC3=O` [Pseudolaric Acid C2] here?
**A.** Its value is 3.3%.
